PubChem BioAssay AID1259308 – NCATS, 2017
Purpose: 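Candidate targets for better recombinant protein yield in mammalian cells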 (primary screen). Cells: human HEK293 embryonic kidney cells stably expressing firefly luciferase (HEK-CMV-Luc2-Hygro). Reagents: single siRNA against human genes, 0.8 pmol siRNA per well. Timing: 72 h. Detection: 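Reporter luminescence and viable-cell signal on separate replicate plates, given as percent of non-targeting control and median/MAD z-scores, plus per-cell luciferase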. Direction: total luciferase, z-score and total luciferase, % of control: higher = more reporter protein produced. Rule for the call: 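Active when the median/MAD z-score for overall luciferase is greater than 3; a gene was taken forward for validation with new siRNAs if at least two of its three siRNAs passed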. Meaning of the calls: active = raised luciferase; inactive = no rise.
The deposit covers about 59,000 reagents; shown is a part drawn at random. About 1,510 of all reagents (2.6%) count as active. 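Calls use total luciferase alone and ignore viability, so some active siRNAs may act by altering cell number.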 A number with no mark means an inactive call. The numbers tell different reagents against one gene apart. Not all columns of the deposit are shown. Reagent sequences are not shown.

TOMM40 (GeneID 10452) #1: total luciferase, z-score = 0.687; total luciferase, % of control = 95.5
TOMM40 (GeneID 10452) #2: total luciferase, z-score = -0.853; total luciferase, % of control = 64.9
TOMM40 (GeneID 10452) #3: total luciferase, z-score = -3.27; total luciferase, % of control = 16.8
OR4E1 (GeneID 26687) #1: total luciferase, z-score = -0.463; total luciferase, % of control = 72.7
OR4E1 (GeneID 26687) #2: total luciferase, z-score = -0.0446; total luciferase, % of control = 81
OR4E1 (GeneID 26687) #3: total luciferase, z-score = 0.565; total luciferase, % of control = 93.1
C8B (GeneID 732) #1: total luciferase, z-score = 1.56; total luciferase, % of control = 113
C8B (GeneID 732) #2: total luciferase, z-score = -0.264; total luciferase, % of control = 76.6
C8B (GeneID 732) #3: total luciferase, z-score = 0.998; total luciferase, % of control = 102
ACSL6 (GeneID 23305) #1: total luciferase, z-score = 1.42; total luciferase, % of control = 110
ACSL6 (GeneID 23305) #2: total luciferase, z-score = -0.702; total luciferase, % of control = 67.9
ACSL6 (GeneID 23305) #3: total luciferase, z-score = 0.326; total luciferase, % of control = 88.4

2 of these entries, reformatted:
| target gene | siRNA no. | total luciferase, z-score | total luciferase, % of control |
| --- | --- | --- | --- |
| TOMM40 (GeneID 10452) | 3 | -3.27 | 16.8 |
| OR4E1 (GeneID 26687) | 1 | -0.463 | 72.7 |
